This is an account of results in PMC7485968 (2020).

Results are given in words; binding and its absence hold for the method and conditions named. For some of these results: In cells and extracts the contact can be indirect. Some entries that bind do so weakly or less than the wild type. Sequences can lack the tags named with a protein.

For experiment [1], the target named is T1, His-tagged ERG (Homo sapiens (Human), UniProt P11308).
T1 chain: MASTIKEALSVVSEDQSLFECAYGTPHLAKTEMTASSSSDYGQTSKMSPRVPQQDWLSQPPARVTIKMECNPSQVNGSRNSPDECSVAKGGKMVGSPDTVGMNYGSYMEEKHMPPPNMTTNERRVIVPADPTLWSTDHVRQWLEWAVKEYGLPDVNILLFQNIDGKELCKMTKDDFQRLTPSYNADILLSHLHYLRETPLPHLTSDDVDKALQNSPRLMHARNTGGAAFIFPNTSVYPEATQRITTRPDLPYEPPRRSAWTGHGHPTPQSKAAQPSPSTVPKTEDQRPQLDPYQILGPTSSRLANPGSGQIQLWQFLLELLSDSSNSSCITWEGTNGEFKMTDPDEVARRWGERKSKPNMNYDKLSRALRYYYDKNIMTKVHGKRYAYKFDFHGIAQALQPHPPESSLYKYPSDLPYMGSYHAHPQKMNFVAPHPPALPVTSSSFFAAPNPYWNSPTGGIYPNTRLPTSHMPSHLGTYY
Briefly: pull-down; purified His-ERG on cobalt beads (His-tag isolation dynabeads) as bait; 14 ug PC3 nuclear extract, 2 hrs at 4 degrees, NP-40 lysis buffer (250 mM NaCl); DMSO or Hit compounds A-D (62.5 uM; Hit B also 60, 45, 30 uM) added afterwards; EWS immunoblot; only the target purified.

In experiment [2] the target is T1, His-tagged ERG. Briefly: pull-down; purified His-ERG conjugated to cobalt beads (His-tag isolation dynabeads) as bait; purified FLAG-GST-EWS proteins pulled down; FLAG immunoblot; both purified. On the technique in general: A western blot detects proteins with antibodies after separation by electrophoresis.
The target in experiment [3] is T1, His-tagged ERG. Briefly: AlphaScreen or HTRF; AlphaScreen; His-ERG on nickel chelate acceptor beads, GST-tagged EWS 1-355aa on glutathione donor beads; cross titration 100, 30, 10, 3, 0 nM of each protein, 0.4 ug beads per well; 1x PBS + 0.5% BSA, room temperature; both purified. (In Alpha technology, singlet oxygen from a donor bead excites a nearby acceptor bead.)

Turning to “native full-length EWS (from UniProt Q01844 1-656)”, in the experiment with His-tagged ERG [1], the binding result is recorded as “binds”.

B1: FLAG-GST-EWS 459-656aa (protein)
chain: PPREGRGMPPPLRGGPGGPGGPGGPMGRMGGRGGDRGGFPPRGPRGSRGNPSGGGNVQHRAGDWQCPNPGCGNQNFAWRTECNQCKAPKPEGFLPPPFPPPGGDRGRGGPGGMRGGRGGLMDRGGPGGMFRGGRGGDRGGFRGGRGMDRGGFGGGRRGGPGGPPGPLMEQMGGRRGGRGGPGKMDKGEHRQERRDRPY
Turning to B1, the binding entry in the experiment with His-tagged ERG [2] is recorded as “no binding”.

B2: FLAG-GST-EWS 1-355aa (protein)
chain: MASTDYSTYSQAAAQQGYSAYTAQPTQGYAQTTQAYGQQSYGTYGQPTDVSYTQAQTTATYGQTAYATSYGQPPTGYTTPTAPQAYSQPVQGYGTGAYDTTTATVTTTQASYAAQSAYGTQPAYPAYGQQPAATAPTRPQDGNKPTETSQPQSSTGGYNQPSLGYGQSNYSYPQVPGSYPMQPVTAPPSYPPTSYSSTQPTSYDQSSYSQQNTYGQPSSYGQQSSYGQQSSYGQQPPTSYPPQTGSYSQAPSQYSQQSSSYGQQSSFRQDHPSSMGVYGQESGGFSGPGENRSMSGPDNRGRGRGGFDRGGMSRGGRGGGRGGMGSAGERGGFNKPGGPMDEGPDLDLGPPVDPD
B2: the binding entry with His-tagged ERG [2] and in the experiment with His-tagged ERG [3] was “binds” in each case.
